Measurements reported in publication PMC2713237.
No constants are given. Whether binding was seen depends on the method and setting. Binding seen in cells or lysates may run through a third protein. A yes stands for co-enrichment or nearness to the bait. Other partners may have been found.

Protein sequences, listed by entry. Tags and fused reporters are not part of them. Residues count along the entry.
UniProt P01558, residues 116-319: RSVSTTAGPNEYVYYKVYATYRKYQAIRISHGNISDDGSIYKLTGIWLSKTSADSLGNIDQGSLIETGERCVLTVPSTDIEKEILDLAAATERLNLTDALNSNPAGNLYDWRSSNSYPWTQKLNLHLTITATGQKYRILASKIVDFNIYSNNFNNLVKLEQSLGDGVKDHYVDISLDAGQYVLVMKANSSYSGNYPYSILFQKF

B1: claudin-2 (protein, UniProt P57739 1-230)
chain: MASLGLQLVGYILGLLGLLGTLVAMLLPSWKTSSYVGASIVTAVGFSKGLWMECATHSTGITQCDIYSTLLGLPADIQAAQAMMVTSSAISSLACIISVVGMRCTVFCQESRAKDRVAVAGGVFFILGGLLGFIPVAWNLHGILRDFYSPLVPDSMKFEIGEALYLGIISSLFSLIAGIILCFSCSSQRNRSNYYDAYQAQPLATRSSPRPGQPPKVKSEFNSYSLTGYV
B2: Claudin-7 (protein, UniProt Q9Z1L1 1-211)
chain: MANSGLQLLGFSMAMLGWVGLIASTAIPQWQMSSYAGDNIITAQAMYKGLWMECVTQSTGMMSCKMYDSVLALPAATQATRALMIVSLVLGFLAMFVATMGMKCTRCGGDDKVKKARIAMTGGIIFIVAGLAALVACSWIGHQIVTDFYNPLTPMNIKYEFGPAIFIGWAGSALVLLGGALLSCSCPGSESKAAYRAPRSYPKSNSSKEYV
B3: RNA polymerase II-associated protein 2 (protein, UniProt Q5I0E6 1-609)
chain: MADSAVPYSLGPSARASSTHRVATGTKQTSALKRRDASKRQAELEAALQRKVESERRAVRLVEQLLEENITEEFLKECGMFITPAHYSDVVDERAIIKLCGYPLCQKKLGVIPKQKYRISTKTNKVYDITERKSFCSNFCYKASKFFEAQIPKTPVWVREEERPPEFQLLKKGQSGCSGEVVQFFRDAVTAADVDAYGAFDAQCEPASSSTWSERASDERASDEEGPGFVSSLLPGNRPKAVGTKPQPHRQSSTVKKKAAQKMTSKHGEQTVSEVTEQLSNCRLDSQEKVATCKLPAKKENTQISSPGPLCDRLNTSTVSENKHSVSQVTLVGISKKSAEHFRSKFAKSNPGSGSASGLVQVRPEVAKANLLRVLKDTLTEWKTDETLKFLYGQDHGSVCLQPSAASGPDEELDEDDISCQAQNTLDETLPFRGSDTAIKPLPSYESLKKETEMLNLRVREFYRGRCVLNEDSTKSQDSKENELQRDPSFPLIDSSSQNQIRRRIVLEKLSKVLPGLLGPLQITMGDIYTELKNLVQTFRLSNRNIIHKPVEWTLIAVVLLSLLTPILGIQKHSPKNVVFTQFIATLLTELHLKCEDLENLAMIFRTSC
B4: 3-ketoacyl-CoA thiolase (protein, UniProt P13437 1-397)
chain: MALLRGVFIVAAKRTPFGAYGGLLKDFTATDLTEFAARAALSAGKVPPETIDSVIVGNVMQSSSDAAYLARHVGLRVGVPTETGALTLNRLCGSGFQSIVSGCQEICSKDAEVVLCGGTESMSQSPYSVRNVRFGTKFGLDLKLEDTLWAGLTDQHVKLPMGMTAENLAAKYNISREDCDRYALQSQQRWKAANEAGYFNEEMAPIEVKTKKGKQTMQVDEHARPQTTLEQLQNLPPVFKKEGTVTAGNASGMSDGAGVVIIASEDAVKKHNFTPLARVVGYFVSGCDPAIMGIGPVPAITGALKKAGLSLKDMDLIDVNEAFAPQFLAVQKSLDLDPSKTNVSGGAIALGHPLGGSGSRITAHLVHELRRRGGKYAVGSACIGGGQGISLIIQNTA
B5: D-beta-hydroxybutyrate dehydrogenase (protein, UniProt P29147 47-343)
chain: TSQADAASGKAVLVTGCDSGFGFSLAKHLHSKGFLVFAGCLLKDKGDAGVRELDSLKSDRLRTIQLNVCNSEEVEKAVETVRSGLKDPEKGMWGLVNNAGISTFGEVEFTSMETYKEVAEVNLWGTVRTTKSFLPLLRRAKGRVVNISSMLGRMANPARSPYCITKFGVEAFSDCLRYEMHPLGVKVSVVEPGNFIAATSLYSPERIQAIAKKMWDELPEVVRKDYGKKYFDEKIAKMETYCNSGSTDTSSVINAVTHALTAATPYTRYHPMDYYWWLRMQVMTHFPGAISDKIYIH
B6: Normal mucosa of esophagus-specific gene 1 protein (protein, UniProt Q5RK28 1-83)
chain: MGIFQRLMKNKELIPLAFFISAAATGASSFALYALKKTDVVIDRKRNPEPWETVDPTQPQKLLTINQEWKPVEELQRVRRATR
B7: Mitochondrial glutamate carrier 1 (protein, UniProt A0A0G2K5L2 1-323)
chain: MADKQISLPAKLINGGIAGLIGVTCVFPIDLAKTRLQNQQNGQRMYASMSDCLIKTIRSEGYFGMYRGAAVNLTLVTPEKAIKLAANDFFRHQLSKDGQKLTLPKEMLAGCGAGTCQVIVTTPMEMLKIQLQDAGRIAAQRKMLAAQAQLATQGGGQPSVEAPAAPRPTATQLTRDLLRNHGIAGLYKGLGATLLRDVPFSIVYFPLFANLNQLGRPSSEEKSPFYVSFLAGCVAGSAAAVAVNPCDVVKTRLQSLERGVNEDTYSGFLDCARKIWRHEGPSAFLKGAYCRALVIAPLFGIAQVVYFLGIAESLLGLLQEPQA
B8: claudin-6 (protein, UniProt P56747 1-220)
chain: MASAGMQILGVVLTLLGWVNGLVSCALPMWKVTAFIGNSIVVAQVVWEGLWMSCVVQSTGQMQCKVYDSLLALPQDLQAARALCVIALLVALFGLLVYLAGAKCTTCVEEKDSKARLVLTSGIVFVISGVLTLIPVCWTAHAIIRDFYNPLVAEAQKRELGASLYLGWAASGLLLLGGGLLCCTCPSGGSQGPSHYMARYSTSAPAISRGPSEYPTKNYV
B9: Calcium-binding mitochondrial carrier protein Aralar1 (protein, UniProt F1LX07 1-676)
chain: MAVKVHTTKRGDPHELRNIFLQYASTEVDGEHYMTPEDFVQRYLGLYNDPNSNPKIVQLLAGVADQTKDGLISYQEFLAFESVLCAPDSMFIVAFQLFDKSGNGEVTFENVKEIFGQTIIHHHIPFNWDCEFIRLHFGHNRKKHLNYVEFTQFLQELQLEHARQAFALKDKSKSGMISGLDFSDVMVTIRSHMLTPFVEENLVSAAGGSTSHQVSFSYFNAFNSLLNNMELVRKIYSTLAGTRKDIEVTKEEFASAITYGVVTPINVGILYFINNVHISTGRLTLADIERIAPLAEGALPYNLAELQRQQSPGLGRPIWLQIAESAYRFTLGSVAGAVGATAVYPIDLVKTRMQNQRGTGSVVGELMYKNSFDCFKKVLRYEGFFGLYRGLIPQLIGVAPEKAIKLTVNDFVRDKFTRRDGSIPLPAEILAGGCAGGSQVIFTNPLEIVKIRLQVAGEITTGPRVSALNVLQDLGLFGLYKGAKACFLRDIPFSAIYFPVYAHCKLLLADENGHVGGINLLTAGAMAGVPAASLVTPADVIKTRLQVAARAGQTTYSGVIDCFRKILREEGPSAFWKGTAARVFRSSPQFGVTLVTYELLQRWFYIDFGGLKPSGSEPTPKSRIADLPPANPDHIGGYRLATATFAGIENKFGLYLPKFKSPGVAAAQPKVAAAAQ
B10: Staphylococcal nuclease domain-containing protein 1 (protein, UniProt Q66X93 1-909)
chain: MASAQSSGSSGGPAVPTVQRGIVKMVLSGCAIIVRGQPRGGPPPERQINLSNIRAGNLARRAAATQPDGKDTPDEPWAFPAREFLRKKLIGKEVCFTIENKTPQGREYGMIYLGKDTNGENIAESLVAEGLASRREGMRANNPEQNRLSECEEQAKASKKGMWSEGNGSHTIRDLKYTIENPRHFVDSHHQKPVNAIIEHVRDGSVVRALLLPDHYLVTVMLSGIKCPTFRRETDGSETPEPFAAEAKFFTESRLLQRDVQIILESCHNQNILGTILHPNGNITELLLKEGFARCVDWSIAVYTRGAEKLRAAERFAKERRLRIWRDYVPPTANLDQKDKQFVAKVMQVLNADAIVVKLNSGDYKTIHLSSIRPPRLEGDNIQDKNKKLRPLYDIPYMFEAREFLRKKLIGKKVSVTVDYIRPASPATETVPAFSERTCATVTIGGINIAEALVSKGLATVIRYRQDDDQRSSHYDELLAAEARAIKNGKGLHSKKEVPIHRVADISGDTQKAKQFLPFLQRAGRSEAVVEYVFSGSRLKLYLPKETCLITFLLAGIECPRGARNLPGLVQEGEPFSEEATLFTKELVLQREVEVEVESMDKAGNFIGWLHMDGANLSVLLVEHALSKVHFTAERSAYYKPLLSAEEAAKQRKEKVWAHYEEQPVEEVMPVLEEKERSASYKPVFVTEITDDLHFYVQDVETGTQLEKLMENMRSDISSHPPVEGAYAPRRGEFCIAKFVDGEWYRARVEKVESPAKVHVFYIDYGNREILPSTRLGALPPAFSTRVLPAQATEYAFAFIQVPQDEDARTDAVDSVVRDIQNTQCLLNVEHLSASCPHVTLQFADSKGDVGLGLVKEGLVMVEVRKEKQFQKVITEYLNAQESAKSARLNLWRYGDFRADDADEFGYSR

The binders below were run against GST-CPE_(116–319) fusion protein (Clostridium perfringens) (UniProt P01558) (assay: affinity purification with mass spectrometry; only the target purified).

Q: B1 was tested. Which binding did it give?
A: binds

Q: Which binding does the source give for B2 here?
A: binds

Q: With B3 as the binder, how does the binding read?
A: binds

Q: For B4, which binding is on record?
A: binds

Q: With B5 as the binder, how does the binding read?
A: binds

Q: How did the binding turn out when B6 was run?
A: binds

Q: Which binding does the source give for B7 here?
A: binds

Q: With B8 as the binder, how does the binding read?
A: binds

Q: With B9 as the binder, how does the binding read?
A: binds

Q: With B10 as the binder, how does the binding read?
A: binds
